Results are given in words; binding and its absence hold for the method and conditions named. In cells and extracts the contact can be indirect. Some results given as binding are weak or reduced against the parent protein; the word gives no strength.

The target of experiment [1] is T1, JARID2 (endogenous, mouse embryonic stem cells) (mouse (endogenous in E14 ESCs)), Q62315.
T1 chain: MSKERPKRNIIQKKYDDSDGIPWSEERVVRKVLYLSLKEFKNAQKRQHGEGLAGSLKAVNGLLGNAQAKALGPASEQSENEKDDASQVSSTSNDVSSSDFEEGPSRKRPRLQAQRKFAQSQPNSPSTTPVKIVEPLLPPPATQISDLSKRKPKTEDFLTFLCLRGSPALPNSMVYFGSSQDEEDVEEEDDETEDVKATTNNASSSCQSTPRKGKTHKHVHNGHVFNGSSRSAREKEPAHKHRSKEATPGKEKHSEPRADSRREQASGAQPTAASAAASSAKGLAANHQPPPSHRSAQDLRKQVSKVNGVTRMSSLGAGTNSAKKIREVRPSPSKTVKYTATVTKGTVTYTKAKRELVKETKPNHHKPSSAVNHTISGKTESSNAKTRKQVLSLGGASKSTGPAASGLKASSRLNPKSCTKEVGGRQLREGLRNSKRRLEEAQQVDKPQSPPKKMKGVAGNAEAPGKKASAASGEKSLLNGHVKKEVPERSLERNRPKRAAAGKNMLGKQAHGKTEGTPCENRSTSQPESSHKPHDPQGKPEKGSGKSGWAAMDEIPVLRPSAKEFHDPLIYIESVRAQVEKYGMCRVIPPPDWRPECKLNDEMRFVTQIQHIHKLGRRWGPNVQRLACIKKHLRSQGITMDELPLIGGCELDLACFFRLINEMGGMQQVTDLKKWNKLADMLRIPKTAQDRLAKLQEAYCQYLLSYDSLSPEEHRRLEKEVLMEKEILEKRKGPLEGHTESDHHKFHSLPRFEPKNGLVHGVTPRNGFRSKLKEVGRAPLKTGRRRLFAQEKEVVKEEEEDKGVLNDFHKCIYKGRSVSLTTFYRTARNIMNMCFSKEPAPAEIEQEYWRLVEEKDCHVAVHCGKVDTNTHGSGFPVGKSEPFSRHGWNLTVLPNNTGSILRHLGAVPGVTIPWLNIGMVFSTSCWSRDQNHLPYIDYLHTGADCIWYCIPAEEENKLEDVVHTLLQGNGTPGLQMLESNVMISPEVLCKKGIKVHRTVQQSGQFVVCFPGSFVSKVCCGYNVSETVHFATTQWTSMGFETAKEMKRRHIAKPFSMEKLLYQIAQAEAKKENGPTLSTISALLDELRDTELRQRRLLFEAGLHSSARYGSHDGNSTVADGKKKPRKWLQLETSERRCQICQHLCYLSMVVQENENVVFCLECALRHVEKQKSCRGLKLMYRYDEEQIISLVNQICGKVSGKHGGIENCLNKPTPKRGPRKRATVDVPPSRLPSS
In words: co-IP; endogenous co-IPs of EZH2 and of JARID2 from nuclear extracts of WT, LKO, SKO and Aebp2 KO mouse ESC lines; Benzonase; Protein G Dynabeads; Western blot. The following applies: remark: other sources report otherwise. A general note: Immunoblotting shows a protein as a band on a membrane.

Experiment [2] has as its target EZH2 (endogenous, mouse embryonic stem cells) (mouse (endogenous in E14 ESCs)), Q61188. The experiment is described as above. The following applies: remark: other sources report otherwise.

B1: AEBP2-Long (endogenous, mouse embryonic stem cells), Q9Z248-1 1-504 (protein)
chain: MAAALADMADLEELSRLSPLSPGSPGPAARGRAEPPEEEEEEDDEEAEAEAVAALLLNGGAGGGAGGGEAETMSEPSPESASQAGGDEDEDEEDDEDEGSSSGGAEEESSAESLVGSSSGGCSGDETRSLSPGAASSSSGDGDGKEGLEEPKGPRGGPGGPGSSGGGSSSSSVVSSGGDEGYGTGGGGSSATSGGRRGSLEMSSDGEPLSRMDSEDSISSTLMDIDSTISSGRSTPAMMNGQGSTTASSKHIAYNCCWDQCQACFNSSPDLADHIRSIHVDGQRGGVFVCLWKGCKVYNTPSTSQSWLQRHMLTHSGDKPFKCVVGGCNASFASQGGLARHVPTHFSQQNSSKVSSQPKAKEESPSKAGMNKRRKLKNKRRRSLPRPHDFFDAQTLDAIRHRAICFNLSAHIESLGKGHSVVFHSTVIAKRKEESGKIKLLLHWMPEDILPDVWVNESERHQLKTKVVHLSKLPKDTALLLDPNIYRTMPQKRLKRFDILNFPR
Regarding B1, the binding entry in experiment [1] was “binds”.

B2: MTF2 (endogenous, mouse embryonic stem cells), Q02395 1-593 (protein)
chain: MRDSTGAGNSLVHKRSPLRRNQKTSASLNKLSLQDGHKAKKPACKFEEGQDVLARWSDGLFYLGTIKKINILKQSCFIIFEDSSKSWVLWKDIQTGATGSGEMVCTICQEEYSEAPNEMVICDKCGQGYHQLCHTPHIDSSVIDSDEKWLCRQCVFATTTKRGGALKKGPNAKALQVMKQTLPYSVADLEWDAGHKTNVQQCYCYCGGPGDWYLKMLQCCKCKQWFHEACVQCLQKPMLFGDRFYTFICSVCSSGPEYLKRLPLQWVDIAHLCLYNLSVIHKKKYFDSELELMTYINENWDRLHPGELADTPKSERYEHVLEALNDYKTMFMSGKEIKKKKHLFGLRIRVPPVPPNVAFKAEKEPEGTSHEFKIKGRKASKPTSDSREVSNGIEKKGKKKSVGRPPGPYTRKMIQKTAELPLDKESVSENPTLDLPCSIGRTEGIAHSSNTSDVDLTGASSANETTSASISRHCGLSDSRKRTRTGRSWPAAIPHLRRRRGRLPRRALQTQNSEVVKDDEGKEDYQFEELNTEILNNLADQELQLNHLKNSITSYFGAAGRIACGEKYRVLARRVTLDGKVQYLVEWEGATAS
As for B2, the binding entry in experiment [1] is “binds”.

B3: JARID2 (endogenous, mouse embryonic stem cells), Q62315 1-1234 (protein)
chain: MSKERPKRNIIQKKYDDSDGIPWSEERVVRKVLYLSLKEFKNAQKRQHGEGLAGSLKAVNGLLGNAQAKALGPASEQSENEKDDASQVSSTSNDVSSSDFEEGPSRKRPRLQAQRKFAQSQPNSPSTTPVKIVEPLLPPPATQISDLSKRKPKTEDFLTFLCLRGSPALPNSMVYFGSSQDEEDVEEEDDETEDVKATTNNASSSCQSTPRKGKTHKHVHNGHVFNGSSRSAREKEPAHKHRSKEATPGKEKHSEPRADSRREQASGAQPTAASAAASSAKGLAANHQPPPSHRSAQDLRKQVSKVNGVTRMSSLGAGTNSAKKIREVRPSPSKTVKYTATVTKGTVTYTKAKRELVKETKPNHHKPSSAVNHTISGKTESSNAKTRKQVLSLGGASKSTGPAASGLKASSRLNPKSCTKEVGGRQLREGLRNSKRRLEEAQQVDKPQSPPKKMKGVAGNAEAPGKKASAASGEKSLLNGHVKKEVPERSLERNRPKRAAAGKNMLGKQAHGKTEGTPCENRSTSQPESSHKPHDPQGKPEKGSGKSGWAAMDEIPVLRPSAKEFHDPLIYIESVRAQVEKYGMCRVIPPPDWRPECKLNDEMRFVTQIQHIHKLGRRWGPNVQRLACIKKHLRSQGITMDELPLIGGCELDLACFFRLINEMGGMQQVTDLKKWNKLADMLRIPKTAQDRLAKLQEAYCQYLLSYDSLSPEEHRRLEKEVLMEKEILEKRKGPLEGHTESDHHKFHSLPRFEPKNGLVHGVTPRNGFRSKLKEVGRAPLKTGRRRLFAQEKEVVKEEEEDKGVLNDFHKCIYKGRSVSLTTFYRTARNIMNMCFSKEPAPAEIEQEYWRLVEEKDCHVAVHCGKVDTNTHGSGFPVGKSEPFSRHGWNLTVLPNNTGSILRHLGAVPGVTIPWLNIGMVFSTSCWSRDQNHLPYIDYLHTGADCIWYCIPAEEENKLEDVVHTLLQGNGTPGLQMLESNVMISPEVLCKKGIKVHRTVQQSGQFVVCFPGSFVSKVCCGYNVSETVHFATTQWTSMGFETAKEMKRRHIAKPFSMEKLLYQIAQAEAKKENGPTLSTISALLDELRDTELRQRRLLFEAGLHSSARYGSHDGNSTVADGKKKPRKWLQLETSERRCQICQHLCYLSMVVQENENVVFCLECALRHVEKQKSCRGLKLMYRYDEEQIISLVNQICGKVSGKHGGIENCLNKPTPKRGPRKRATVDVPPSRLPSS
In the case of B3, the binding entry in experiment [2] was “binds”.

The values are drawn from paper PMC12669776.
